± gives the standard deviation. Only a part is listed here, and it is no random draw. Many of these values have a large error.
Tested on: MILI (PIWIL2) piRISC loaded with L1MC piRNA (26 nt)
Assay: pre-steady-state target cleavage rate (min^-1); MIWI and MILI are mouse PIWI proteins and EfPiwi is from a freshwater sponge; tags in brackets are library labels; higher = faster piRNA-guided slicing of the target
Conditions: guide: L1MC piRNA 5'p-UAACUAAAUACUAUGCAAGCUGUAGG; auxiliary factor: 500 nM mouse GTSF1
Outline: (§1)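 Cleave-'n-Seq used a transcribed, DNA-blocked target RNA library at 0.1 nM and active affinity-purified piRISC with one synthetic guide at 1 nM, with or without 500 nM GTSF1 partner protein, in HEPES–potassium acetate buffer at 33 °C for 0–8 or 0–960 min. Uncleaved targets were sequenced and normalised to depth and to weakly complementary targets, and three trials were pooled with k3 capped at 0.0001 min^-1. The pre-steady-state cleavage rate was estimated by a burst-and-steady-state fit.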

Sequence | pre-steady-state target cleavage rate
UCCUGGAUGUCGUUGCAUAGUUAUUAGUUA | 0.00343 ± 0.0046
UCCUGGAUGUCGAACCAUAGUAUUUAUUUA | 0.000212 ± 0.031
UCCUGCUUACAGCUUGCAUAGUAUUUAGUUA | 0.451 ± 0.043
UCCUCCCUACAGCUUGCAUAGUAUUUAGUUA | 0.303 ± 0.02
UCCUGGAUGUCGAACCAUAGUUUUUACUUA | 0.000281 ± 0.025
UCCUGGAUGUCGAACCAUAGUAUUUAAUUA | 0.000456 ± 0.017

Same assay, conditions: guide: L1MC piRNA 5'p-UAACUAAAUACUAUGCAAGCUGUAGG; auxiliary factor: none (no GTSF1)

Sequence | pre-steady-state target cleavage rate
UCCUGGAUGUCGAACCAUAGUUUUUUGUUA | 0.000204 ± 0.018
UCCUGGUACAGCUUGCAUUCUAUUUUCAAA | 0.000931 ± 0.01
UCCUGGAUGUGCUUCGAUAGUAUUUAGUUA | 0.00259 ± 0.0036
UCCUGGAUGUCGUUGCAUAGUUUUUAGUAA | 0.0021 ± 0.0038
UCCUGGAUGAGCUUGCUAUAGUAUUUAGUUA | 0.00068 ± 0.0093
UCCUGGUACAGCUUGCAUAGUUUUAGUUA | 0.00243 ± 0.0033
UCCUGGAUGUGCUUGGAUUGUAUUUAGUUA | 0.00095 ± 0.0079
UCCUGGAUGUCGUUCCAUAGUUUUUAGUUA | 0.000419 ± 0.014
UCCUGGAUGUCGAACCAUAGUUUUUAGAUA | 0.000339 ± 0.011
UCCUGGAUGUGCUUGCAUAUAUUUAGUUA | 0.00196 ± 0.003
UCCUGGAUGUCCUUGCAUAGUAAAUAGUAA | 0.00143 ± 0.0049
UCCUGGAUGUCGAACGUUAUGUAUUUAGUUA | 0.000184 ± 0.026
UCCUGGAUGUCGAACCAUAGUUAUUAGUUA | 0.000404 ± 0.011
UCCUGGAUGUCGAACCAUAGUAUUUAGUUUA | 0.000214 ± 0.0093
UCCUCGAUCAGCUUGCAUAGUAUUUAGAAA | 0.00185 ± 0.0032
UCCUGGAUGAGCAAGCAUAGUAUUUAGAAA | 0.00101 ± 0.007
UCCUGGAUGUCGAAGCAUAGUAUUUAGUA | 0.00236 ± 0.0031
UCCUGGAUGUGCUUGCUAAGUAUUUAGUAA | 0.00108 ± 0.0059
UCCUGGAUGUCGAACCAUAGUAUUUAGUUU [g2:g15:cont:t1U] | 0.000881 ± 0.0049

Tested on: MILI (PIWIL2) piRISC loaded with piRNA #1 (26 nt)
Assay: as above
Conditions: guide: piRNA #1 5'p-UGAGGUAGUAGGUUGUAUAGUAUCCA; auxiliary factor: 500 nM mouse GTSF1
Outline: as §1

Sequence | pre-steady-state target cleavage rate
GGAGACGUUACUAUACAACGUACUACCUCA | 0.0206 ± 0.0027
GGAGACCUAACUAUACAGCCUACUACCUCA | 0.0605 ± 0.018
GGAGACCUAUGAUAUGAACCUAACUACCUCA | 0.000169 ± 0.018
GGAGACCUAUGAUUACAACGAACUACCUCA | 0.000528 ± 0.0069
GGAGACCUAACAUAUACAACCUACUACCUCA | 0.026 ± 0.012
GGAGACCUAUGUAUACAAGGAUGAUGGAGA [g13:g19:cont:t1A] | 0.0001 ± 0.023
GGAGACCUAUGAUAUGAACCAUCUACCUCA | 0.00011 ± 0.029
GGAGACCUUUCUAUACAUCCUACUACCUCA | 0.158 ± 0.013
GGAGACCUAUGAUAUGUACUCUACUACCUCA | < 0.0001
GGAGACCUAUGAUAUGUUGGUACACCUCA | 0.000347 ± 0.014
GGAGACGAUACUAUACAACCUACUAACCUCA | 0.194 ± 0.02
GGAGUGGUUACUAUACAACCUACUUCCUCA | 0.0036 ± 0.002
GGAGACCAUACUAUACAACACUACUACCUCA | 0.00135 ± 0.0062
GGAGACCUAUGAUAUGAACCCUACUACCUCA | 0.000265 ± 0.01
GGAGAGCAUACUAAACAACCUACUACCUCA | 0.158 ± 0.015

An excerpt of these results, as tab-separated lines:
Sequence	pre-steady-state target cleavage rate
GGAGACCUAUGAUAUGUUGGUACACCUCA	0.000347 ± 0.014
GGAGACGAUACUAUACAACCUACUAACCUCA	0.194 ± 0.02

From the supplement of paper PMC10338343
